Laboratory results published in the supplement of paper PMC10077471.
The full ranking holds about 1,900 compounds; the median of “excess over highest single agent (ExcessHSA) synergy score, 6x6 matrix” is about -83, and the lowest 2% start at about -370. Some of the results follow.

These compounds were tested on NCI-H446 (assay: excess over highest single agent (ExcessHSA) synergy score, 6x6 matrix; higher = less synergy (more negative = stronger synergy)). Conditions: 72 h; CellTiter-Glo viability.

Compound | excess over highest single agent
COc1cc2nccc(Oc3ccc(NC(=O)C4(C(=O)Nc5ccc(F)cc5)CC4)cc3)c2cc1OC + Cc1sc2c(c1C)C(c1ccc(Cl)cc1)=N[C@@H](CC(=O)OC(C)(C)C)c1nnc(C)n1-2 [NCGC00250412-19] | 86.3
CNC(=O)c1cc(COc2nnc(Nc3ccc(Cl)cc3)c3ccoc23)ccn1 + Cc1sc2c(c1C)C(c1ccc(Cl)cc1)=N[C@@H](CC(=O)OC(C)(C)C)c1nnc(C)n1-2 [NCGC00250412-19] | 1.95
CCCc1nc(C)c2c(=O)nc(-c3cc(S(=O)(=O)N4CCN(CC)CC4)ccc3OCC)[nH]n12 + Cc1sc2c(c1C)C(c1ccc(Cl)cc1)=N[C@@H](CC(=O)OC(C)(C)C)c1nnc(C)n1-2 [NCGC00250412-19] | -25
CCCCc1ccc(NS(=O)(=O)c2ccc(C)c(C(=O)N3CCN(c4cccc(C)c4C)CC3)c2)cc1 + Cc1sc2c(c1C)C(c1ccc(Cl)cc1)=N[C@@H](CC(=O)OC(C)(C)C)c1nnc(C)n1-2 [NCGC00250412-19] | -18.6
Oc1ccc(OCc2ccccc2)cc1 + Cc1sc2c(c1C)C(c1ccc(Cl)cc1)=N[C@@H](CC(=O)OC(C)(C)C)c1nnc(C)n1-2 [NCGC00250412-19] | 16.8
N=c1ccn2c(n1)O[C@H]1[C@@H](O)[C@@H](CO)O[C@H]12 + Cc1sc2c(c1C)C(c1ccc(Cl)cc1)=N[C@@H](CC(=O)OC(C)(C)C)c1nnc(C)n1-2 [NCGC00250412-19] | -340
N=C1NC(=O)N2CC12 (configuration not stated) + Cc1sc2c(c1C)C(c1ccc(Cl)cc1)=N[C@@H](CC(=O)OC(C)(C)C)c1nnc(C)n1-2 [NCGC00250412-19] | -57
C[C@H]1C[C@H]2[C@@H]3CCC4=CC(=O)C=C[C@]4(C)[C@@]3(F)[C@@H](O)C[C@]2(C)[C@@]1(O)C(=O)CO + Cc1sc2c(c1C)C(c1ccc(Cl)cc1)=N[C@@H](CC(=O)OC(C)(C)C)c1nnc(C)n1-2 [NCGC00250412-19] | 99.7
CN(C)CCOc1ccc(/C(=C(/CCCl)c2ccccc2)c2ccccc2)cc1 + Cc1sc2c(c1C)C(c1ccc(Cl)cc1)=N[C@@H](CC(=O)OC(C)(C)C)c1nnc(C)n1-2 [NCGC00250412-19] | -182
CCN1CCN(C(=O)N[C@@H](C(=O)N[C@@H]2C(=O)N3C(C(=O)O)=C(CSc4nnnn4C)CS[C@H]23)c2ccc(O)cc2)C(=O)C1=O + Cc1sc2c(c1C)C(c1ccc(Cl)cc1)=N[C@@H](CC(=O)OC(C)(C)C)c1nnc(C)n1-2 [NCGC00250412-19] | -38.3
CC(C)(Cc1ccc2ccccc2c1)NC[C@@H](O)COc1cccc(Cl)c1C#N + Cc1sc2c(c1C)C(c1ccc(Cl)cc1)=N[C@@H](CC(=O)OC(C)(C)C)c1nnc(C)n1-2 [NCGC00250412-19] | -82.2
O=C1Nc2ccc(I)cc2C1=Cc1cc(Br)c(O)c(Br)c1 + Cc1sc2c(c1C)C(c1ccc(Cl)cc1)=N[C@@H](CC(=O)OC(C)(C)C)c1nnc(C)n1-2 [NCGC00250412-19] | -45.4
O=C(NCCO[N+](=O)[O-])c1cccnc1 + Cc1sc2c(c1C)C(c1ccc(Cl)cc1)=N[C@@H](CC(=O)OC(C)(C)C)c1nnc(C)n1-2 [NCGC00250412-19] | -51
COC(=O)C1=C(C)NC(C)=C(C(=O)OCCCN2CCC(c3ccccc3)(c3ccccc3)CC2)[C@H]1c1cccc([N+](=O)[O-])c1 + Cc1sc2c(c1C)C(c1ccc(Cl)cc1)=N[C@@H](CC(=O)OC(C)(C)C)c1nnc(C)n1-2 [NCGC00250412-19] | -92
Cc1cc(Nc2ncnc3ccc(-c4ccc(CNCCS(C)(=O)=O)o4)cc23)ccc1Oc1ccn2ncnc2c1 + Cc1sc2c(c1C)C(c1ccc(Cl)cc1)=N[C@@H](CC(=O)OC(C)(C)C)c1nnc(C)n1-2 [NCGC00250412-19] | -16.7
CO[C@@]12[C@H](COC(N)=O)C3=C(C(=O)C(C)=C(N)C3=O)N1C[C@@H]1N[C@@H]12 + Cc1sc2c(c1C)C(c1ccc(Cl)cc1)=N[C@@H](CC(=O)OC(C)(C)C)c1nnc(C)n1-2 [NCGC00250412-19] | -205
CCOC(CN1C(=O)[C@](CC(=O)Nc2ccc(C)cc2)(NC(=O)Nc2ccc(C)cc2)c2ccccc21)OCC + Cc1sc2c(c1C)C(c1ccc(Cl)cc1)=N[C@@H](CC(=O)OC(C)(C)C)c1nnc(C)n1-2 [NCGC00250412-19] | -94.2
Cc1nnc(NS(=O)(=O)c2ccc(N)cc2)s1 + Cc1sc2c(c1C)C(c1ccc(Cl)cc1)=N[C@@H](CC(=O)OC(C)(C)C)c1nnc(C)n1-2 [NCGC00250412-19] | -94.8
FC(F)c1nc2ccccc2n1-c1nc(N2CCOCC2)nc(N2CCOCC2)n1 + Cc1sc2c(c1C)C(c1ccc(Cl)cc1)=N[C@@H](CC(=O)OC(C)(C)C)c1nnc(C)n1-2 [NCGC00250412-19] | -356

2 entries from above, set out differently:
Compound,excess over highest single agent
CCOC(CN1C(=O)[C@](CC(=O)Nc2ccc(C)cc2)(NC(=O)Nc2ccc(C)cc2)c2ccccc21)OCC + Cc1sc2c(c1C)C(c1ccc(Cl)cc1)=N[C@@H](CC(=O)OC(C)(C)C)c1nnc(C)n1-2 [NCGC00250412-19],-94.2
FC(F)c1nc2ccccc2n1-c1nc(N2CCOCC2)nc(N2CCOCC2)n1 + Cc1sc2c(c1C)C(c1ccc(Cl)cc1)=N[C@@H](CC(=O)OC(C)(C)C)c1nnc(C)n1-2 [NCGC00250412-19],-356

More entries

Compound | excess over highest single agent
C[C@@H]1O[C@@H](O[C@H]2C[C@@H](O)[C@]3(CO)[C@H]4[C@H](O)C[C@]5(C)[C@@H](C6=CC(=O)OC6)CC[C@]5(O)[C@@H]4CC[C@]3(O)C2)[C@H](O)[C@H](O)[C@H]1O + Cc1sc2c(c1C)C(c1ccc(Cl)cc1)=N[C@@H](CC(=O)OC(C)(C)C)c1nnc(C)n1-2 [NCGC00250412-19] | -71.9
C[C@@H]1C[C@H]2[C@@H]3CCC4=CC(=O)C=C[C@]4(C)[C@@]3(F)[C@@H](O)C[C@]2(C)[C@@]1(O)C(=O)CO + Cc1sc2c(c1C)C(c1ccc(Cl)cc1)=N[C@@H](CC(=O)OC(C)(C)C)c1nnc(C)n1-2 [NCGC00250412-19] | 111
CCCCC(C)(C)[C@H](O)/C=C/[C@H]1[C@H](O)CC(=O)[C@@H]1C/C=C\CCCC(=O)O + Cc1sc2c(c1C)C(c1ccc(Cl)cc1)=N[C@@H](CC(=O)OC(C)(C)C)c1nnc(C)n1-2 [NCGC00250412-19] | -119
CC(C)Oc1ccc(C(=O)N[C@H](CNC(=O)CN(C)C)Cc2ccc(-c3cn4cccc([C@H](C)O)c4n3)cc2)cc1Cl + Cc1sc2c(c1C)C(c1ccc(Cl)cc1)=N[C@@H](CC(=O)OC(C)(C)C)c1nnc(C)n1-2 [NCGC00250412-19] | -255
Cc1cnc(NC(=O)C2=C(O)c3ccccc3S(=O)(=O)N2C)s1 + Cc1sc2c(c1C)C(c1ccc(Cl)cc1)=N[C@@H](CC(=O)OC(C)(C)C)c1nnc(C)n1-2 [NCGC00250412-19] | 33.4
CC1(C)O[C@@H]2C[C@H]3[C@@H]4CCC5=CC(=O)C=C[C@]5(C)[C@@]4(F)[C@@H](O)C[C@]3(C)[C@]2(C(=O)CO)O1 + Cc1sc2c(c1C)C(c1ccc(Cl)cc1)=N[C@@H](CC(=O)OC(C)(C)C)c1nnc(C)n1-2 [NCGC00250412-19] | 69.3
Cc1nc(=O)c2cc(CN(C)c3ccc(C(=O)N[C@@H](CCC(=O)O)C(=O)O)s3)ccc2[nH]1 + Cc1sc2c(c1C)C(c1ccc(Cl)cc1)=N[C@@H](CC(=O)OC(C)(C)C)c1nnc(C)n1-2 [NCGC00250412-19] | -297
CCN(c1ccccc1)c1cc(NC)[n+](C)c(C)n1 + Cc1sc2c(c1C)C(c1ccc(Cl)cc1)=N[C@@H](CC(=O)OC(C)(C)C)c1nnc(C)n1-2 [NCGC00250412-19] | -39.7
CN1CCN(CCCN2c3ccccc3Sc3ccc(Cl)cc32)CC1 + Cc1sc2c(c1C)C(c1ccc(Cl)cc1)=N[C@@H](CC(=O)OC(C)(C)C)c1nnc(C)n1-2 [NCGC00250412-19] | -339
CN(C)C[C@@H]1CCn2cc(c3ccccc32)C2=C(C(=O)NC2=O)c2cn(c3ccccc23)CCO1 + Cc1sc2c(c1C)C(c1ccc(Cl)cc1)=N[C@@H](CC(=O)OC(C)(C)C)c1nnc(C)n1-2 [NCGC00250412-19] | -125
CC(/C=C1\SC(=S)N(CC(=O)O)C1=O)=C\c1ccccc1 + Cc1sc2c(c1C)C(c1ccc(Cl)cc1)=N[C@@H](CC(=O)OC(C)(C)C)c1nnc(C)n1-2 [NCGC00250412-19] | -68.5
c1ccc(CNc2nc(NCc3ccccc3)c3ccccc3n2)cc1 + Cc1sc2c(c1C)C(c1ccc(Cl)cc1)=N[C@@H](CC(=O)OC(C)(C)C)c1nnc(C)n1-2 [NCGC00250412-19] | -153
CC(=O)[C@]1(O)Cc2c(O)c3c(c(O)c2[C@@H](O[C@H]2C[C@H](N)[C@H](O)[C@H](C)O2)C1)C(=O)c1ccccc1C3=O + Cc1sc2c(c1C)C(c1ccc(Cl)cc1)=N[C@@H](CC(=O)OC(C)(C)C)c1nnc(C)n1-2 [NCGC00250412-19] | -362
CS(=O)(=O)N1CCc2c(-c3cnc(N)nc3)nc(N3CCOCC3)nc21 + Cc1sc2c(c1C)C(c1ccc(Cl)cc1)=N[C@@H](CC(=O)OC(C)(C)C)c1nnc(C)n1-2 [NCGC00250412-19] | -391
Cc1ccc2c(c1)C(=O)C1(O)CCN(c3ccccc3)C1=N2 (configuration not stated) + Cc1sc2c(c1C)C(c1ccc(Cl)cc1)=N[C@@H](CC(=O)OC(C)(C)C)c1nnc(C)n1-2 [NCGC00250412-19] | -126
Nc1cc(C(Cl)=C(Cl)Cl)c(S(N)(=O)=O)cc1S(N)(=O)=O + Cc1sc2c(c1C)C(c1ccc(Cl)cc1)=N[C@@H](CC(=O)OC(C)(C)C)c1nnc(C)n1-2 [NCGC00250412-19] | -60.6
CN1CCN(c2c(F)cc3c(=O)c(C(=O)O)cn(CCF)c3c2F)CC1 + Cc1sc2c(c1C)C(c1ccc(Cl)cc1)=N[C@@H](CC(=O)OC(C)(C)C)c1nnc(C)n1-2 [NCGC00250412-19] | -106
C[C@H](CCC(=O)O)[C@H]1CC[C@H]2[C@@H]3[C@H](O)C[C@@H]4C[C@H](O)CC[C@]4(C)[C@H]3CC[C@]12C + Cc1sc2c(c1C)C(c1ccc(Cl)cc1)=N[C@@H](CC(=O)OC(C)(C)C)c1nnc(C)n1-2 [NCGC00250412-19] | -86.1
